Reference: publication doi:10.1101/2022.12.20.520918
Residue numbers refer to the chain shown, from its start. No constants are given. Whether binding was seen depends on the method and setting. Binding seen in cells or lysates may run through a third protein. Binding calls can cover weak binding; strength is not graded here. Tags and fused reporters may be left off the sequences shown.

Sequences of proteins named here, by UniProt entry; tags and fusion partners are left off. A change or cut given only in a name is not applied to a line headed by its entry.
UniProt Q9M1K0: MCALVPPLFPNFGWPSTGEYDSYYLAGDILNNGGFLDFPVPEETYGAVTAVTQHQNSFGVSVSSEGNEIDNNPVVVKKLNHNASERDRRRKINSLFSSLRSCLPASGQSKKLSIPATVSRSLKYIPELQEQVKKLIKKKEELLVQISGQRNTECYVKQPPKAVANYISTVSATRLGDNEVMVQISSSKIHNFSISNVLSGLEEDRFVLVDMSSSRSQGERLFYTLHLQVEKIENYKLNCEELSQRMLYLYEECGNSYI

Tests used:
[1] = target: T1, FER-LIKE IRON …-INDUCED …ON FACTOR fused to GFP (FIT-GFP) (Arabidopsis thaliana) (UniProt Q0V7X4); experiment: FRET or BRET
T1 sequence: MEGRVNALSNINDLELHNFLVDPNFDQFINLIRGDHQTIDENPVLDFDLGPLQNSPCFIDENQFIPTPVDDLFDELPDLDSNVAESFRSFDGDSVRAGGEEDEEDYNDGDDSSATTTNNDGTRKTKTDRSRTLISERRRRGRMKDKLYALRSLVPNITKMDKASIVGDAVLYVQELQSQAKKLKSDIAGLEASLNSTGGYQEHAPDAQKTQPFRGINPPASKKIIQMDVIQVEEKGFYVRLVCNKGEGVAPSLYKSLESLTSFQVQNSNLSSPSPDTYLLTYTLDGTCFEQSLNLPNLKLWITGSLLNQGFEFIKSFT

[2] = target: T2, FITmSS271AA fused to GFP (FITmSS271AA-GFP) (Arabidopsis thaliana) (UniProt Q0V7X4); experiment: FRET or BRET
T2 sequence: T1 sequence with S271A, S272A

binding [1]: binds
binding [2]: binds
Substance: BASIC HELIX-LOOP-HELIX039 fused to mCherry (bHLH039-mCherry) (from UniProt Q9M1K0)
